# Reference: the supplement of paper PMC8728848
# The other results are listed elsewhere or left out.
# B1: Actd5 (Actinidia), P84527 (protein)
# chain: ISSCNGPCRDLNDCDGQLICIKGKCNDDPQVGTHICRGTTHSHQPGGCKPSGTLTCRGKSYPTYDCSPPVTSSTPAKLTNNDFSEGGDDGGPSECDESYHNNNERIVALSTGWYNGGSRCGKMIRITASNGKSVSAKVVDECDSRHGCDKEHAGQPPCRNNIVDGSNAVWSALGLDKNVGVVDITWSMA
# Assays:
# Test in all cases: glycan array binding signal (z-score within array); higher = stronger binding
# Settings in all cases: glycan notation: IUPAC condensed, linker removed
# [1] = molecular target: Fuc(a1-2)Gal6S(b1-3)GlcNAc
# Method in brief: (§1)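 From the Consortium for Functional Glycomics database, 3228 arrays were curated, keeping only those whose protein sequence was available. Binding is given as a within-array Z-score averaged across arrays sharing a protein sequence and across linkers. Negative Z-scores can be read as non-binding.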
# [2] = molecular target: Fuc(a1-2)Gal6S(b1-3)GlcNAc6S
# Method in brief: as §1
# [3] = molecular target: Fuc(a1-2)Gal6S(b1-4)Glc
# Method in brief: as §1
# [4] = molecular target: Fuc(a1-2)Gal6S(b1-4)Glc6S
# Method in brief: as §1
# [5] = molecular target: Fuc(a1-2)[Gal(a1-3)]Gal
# Method in brief: as §1
# [6] = molecular target: Fuc(a1-2)[Gal(a1-3)]Gal(b1-3)GalNAc
# Method in brief: as §1
# [7] = molecular target: Fuc(a1-2)[Gal(a1-3)]Gal(b1-3)GalNAc(b1-3)Gal(a1-4)Gal(b1-4)Glc
# Method in brief: as §1
# [8] = molecular target: Fuc(a1-2)[Gal(a1-3)]Gal(b1-3)GlcNAc
# Method in brief: as §1
# [9] = molecular target: Fuc(a1-2)[Gal(a1-3)]Gal(b1-3)GlcNAc(b1-2)Man(a1-3)[Fuc(a1-2)[Gal(a1-3)]Gal(b1-3)GlcNAc(b1-2)Man(a1-6)]Man(b1-4)GlcNAc(b1-4)GlcNAc
# Method in brief: as §1
# [10] = molecular target: Fuc(a1-2)[Gal(a1-3)]Gal(b1-3)GlcNAc(b1-2)Man(a1-3)[Fuc(a1-2)[Gal(a1-3)]Gal(b1-3)GlcNAc(b1-2)Man(a1-6)]Man(b1-4)GlcNAc(b1-4)[Fuc(a1-6)]GlcNAc
# Method in brief: as §1
# [11] = molecular target: Fuc(a1-2)[Gal(a1-3)]Gal(b1-3)GlcNAc(b1-3)GalNAc
# Method in brief: as §1
# [12] = molecular target: Fuc(a1-2)[Gal(a1-3)]Gal(b1-3)GlcNAc(b1-6)GalNAc
# Method in brief: as §1
# [13] = molecular target: Fuc(a1-2)[Gal(a1-3)]Gal(b1-4)Glc
# Method in brief: as §1
# [14] = molecular target: Fuc(a1-2)[Gal(a1-3)]Gal(b1-4)GlcNAc
# Method in brief: as §1
# [15] = molecular target: Fuc(a1-2)[Gal(a1-3)]Gal(b1-4)GlcNAc(b1-2)Man
# Method in brief: as §1
# [16] = molecular target: Fuc(a1-2)[Gal(a1-3)]Gal(b1-4)GlcNAc(b1-2)Man(a1-3)[Fuc(a1-2)[Gal(a1-3)]Gal(b1-4)GlcNAc(b1-2)Man(a1-6)]Man(b1-4)GlcNAc(b1-4)GlcNAc
# Method in brief: as §1
# [17] = molecular target: Fuc(a1-2)[Gal(a1-3)]Gal(b1-4)GlcNAc(b1-2)Man(a1-3)[Fuc(a1-2)[Gal(a1-3)]Gal(b1-4)GlcNAc(b1-2)Man(a1-6)]Man(b1-4)GlcNAc(b1-4)[Fuc(a1-6)]GlcNAc
# Method in brief: as §1
# [18] = molecular target: Fuc(a1-2)[Gal(a1-3)]Gal(b1-4)GlcNAc(b1-3)GalNAc
# Method in brief: as §1
# [19] = molecular target: Fuc(a1-2)[Gal(a1-3)]Gal(b1-4)GlcNAc(b1-3)[Fuc(a1-2)[Gal(a1-3)]Gal(b1-4)GlcNAc(b1-6)]GalNAc
# Method in brief: as §1
# [20] = molecular target: Fuc(a1-2)[Gal(a1-3)]Gal(b1-4)GlcNAc(b1-6)GalNAc
# Method in brief: as §1
# [21] = molecular target: Fuc(a1-2)[Gal(a1-3)]Gal(b1-4)[Fuc(a1-3)]Glc
# Method in brief: as §1
# [22] = molecular target: Fuc(a1-2)[Gal(a1-3)]Gal(b1-4)[Fuc(a1-3)]GlcNAc
# Method in brief: as §1
# [23] = molecular target: Fuc(a1-2)[Gal(a1-3)]Gal(b1-4)[Fuc(a1-3)]GlcNAc(b1-3)GalNAc
# Method in brief: as §1
# [24] = molecular target: Fuc(a1-2)[Gal(a1-4)]Gal(b1-4)GlcNAc
# Method in brief: as §1
# [25] = molecular target: Fuc(a1-2)[GalNAc(a1-3)]Gal
# Method in brief: as §1
# [26] = molecular target: Fuc(a1-2)[GalNAc(a1-3)]Gal(b1-3)GalNAc(a1-3)[Fuc(a1-2)]Gal(b1-4)GlcNAc
# Method in brief: as §1
# [27] = molecular target: Fuc(a1-2)[GalNAc(a1-3)]Gal(b1-3)GalNAc(b1-3)Gal(a1-4)Gal(b1-4)Glc
# Method in brief: as §1
# [28] = molecular target: Fuc(a1-2)[GalNAc(a1-3)]Gal(b1-3)GlcNAc
# Method in brief: as §1
# [29] = molecular target: Fuc(a1-2)[GalNAc(a1-3)]Gal(b1-3)GlcNAc(b1-2)Man(a1-3)[Fuc(a1-2)[GalNAc(a1-3)]Gal(b1-3)GlcNAc(b1-2)Man(a1-6)]Man(b1-4)GlcNAc(b1-4)GlcNAc
# Method in brief: as §1
# [30] = molecular target: Fuc(a1-2)[GalNAc(a1-3)]Gal(b1-3)GlcNAc(b1-2)Man(a1-3)[Fuc(a1-2)[GalNAc(a1-3)]Gal(b1-3)GlcNAc(b1-2)Man(a1-6)]Man(b1-4)GlcNAc(b1-4)[Fuc(a1-6)]GlcNAc
# Method in brief: as §1
# [31] = molecular target: Fuc(a1-2)[GalNAc(a1-3)]Gal(b1-3)GlcNAc(b1-3)GalNAc
# Method in brief: as §1
# [32] = molecular target: Fuc(a1-2)[GalNAc(a1-3)]Gal(b1-3)GlcNAc(b1-6)GalNAc
# Method in brief: as §1
# [33] = molecular target: Fuc(a1-2)[GalNAc(a1-3)]Gal(b1-4)Glc
# Method in brief: as §1
# [34] = molecular target: Fuc(a1-2)[GalNAc(a1-3)]Gal(b1-4)GlcNAc
# Method in brief: as §1
# [35] = molecular target: Fuc(a1-2)[GalNAc(a1-3)]Gal(b1-4)GlcNAc(b1-2)Man
# Method in brief: as §1
# [36] = molecular target: Fuc(a1-2)[GalNAc(a1-3)]Gal(b1-4)GlcNAc(b1-2)Man(a1-3)[Fuc(a1-2)[GalNAc(a1-3)]Gal(b1-4)GlcNAc(b1-2)Man(a1-6)]Man(b1-4)GlcNAc(b1-4)GlcNAc
# Method in brief: as §1
# [37] = molecular target: Fuc(a1-2)[GalNAc(a1-3)]Gal(b1-4)GlcNAc(b1-2)Man(a1-3)[Fuc(a1-2)[GalNAc(a1-3)]Gal(b1-4)GlcNAc(b1-2)Man(a1-6)]Man(b1-4)GlcNAc(b1-4)[Fuc(a1-6)]GlcNAc
# Method in brief: as §1
# [38] = molecular target: Fuc(a1-2)[GalNAc(a1-3)]Gal(b1-4)GlcNAc(b1-3)Gal(b1-4)GlcNAc
# Method in brief: as §1
# [39] = molecular target: Fuc(a1-2)[GalNAc(a1-3)]Gal(b1-4)GlcNAc(b1-3)Gal(b1-4)GlcNAc(b1-3)Gal(b1-4)GlcNAc
# Method in brief: as §1
# [40] = molecular target: Fuc(a1-2)[GalNAc(a1-3)]Gal(b1-4)GlcNAc(b1-3)GalNAc
# Method in brief: as §1
# [41] = molecular target: Fuc(a1-2)[GalNAc(a1-3)]Gal(b1-4)GlcNAc(b1-3)[Fuc(a1-2)[GalNAc(a1-3)]Gal(b1-4)GlcNAc(b1-6)]GalNAc
# Method in brief: as §1
# [42] = molecular target: Fuc(a1-2)[GalNAc(a1-3)]Gal(b1-4)GlcNAc(b1-6)GalNAc
# Method in brief: as §1
# [43] = molecular target: Fuc(a1-2)[GalNAc(a1-3)]Gal(b1-4)[Fuc(a1-3)]GlcNAc
# Method in brief: as §1
# [44] = molecular target: Fuc(a1-2)[GalNAc(a1-3)]Gal(b1-4)[Fuc(a1-3)]GlcNAc(b1-3)GalNAc
# Method in brief: as §1
# [45] = molecular target: Fuc(a1-2)[GalNAc(a1-4)]Gal(b1-4)GlcNAc
# Method in brief: as §1
binder,measurement,setting,value
B1,glycan array binding signal (z-score),[1],0.034
same,glycan array binding signal (z-score),[2],0.319
same,glycan array binding signal (z-score),[3],-0.725
same,glycan array binding signal (z-score),[4],-1.15
same,glycan array binding signal (z-score),[5],-0.828
same,glycan array binding signal (z-score),[6],0.128
same,glycan array binding signal (z-score),[7],0.089
same,glycan array binding signal (z-score),[8],0.298
same,glycan array binding signal (z-score),[9],-0.123
same,glycan array binding signal (z-score),[10],1.77
same,glycan array binding signal (z-score),[11],-0.885
same,glycan array binding signal (z-score),[12],0.274
same,glycan array binding signal (z-score),[13],0.887
same,glycan array binding signal (z-score),[14],0.12
same,glycan array binding signal (z-score),[15],0.103
same,glycan array binding signal (z-score),[16],-0.803
same,glycan array binding signal (z-score),[17],0.194
same,glycan array binding signal (z-score),[18],-0.186
same,glycan array binding signal (z-score),[19],0.322
same,glycan array binding signal (z-score),[20],-0.272
same,glycan array binding signal (z-score),[21],0.062
same,glycan array binding signal (z-score),[22],0.914
same,glycan array binding signal (z-score),[23],0.082
same,glycan array binding signal (z-score),[24],1.45
same,glycan array binding signal (z-score),[25],-0.602
same,glycan array binding signal (z-score),[26],0.442
same,glycan array binding signal (z-score),[27],-0.038
same,glycan array binding signal (z-score),[28],0.172
same,glycan array binding signal (z-score),[29],0.017
same,glycan array binding signal (z-score),[30],1.21
same,glycan array binding signal (z-score),[31],0.787
same,glycan array binding signal (z-score),[32],-0.839
same,glycan array binding signal (z-score),[33],0.588
same,glycan array binding signal (z-score),[34],-0.714
same,glycan array binding signal (z-score),[35],-0.868
same,glycan array binding signal (z-score),[36],-0.357
same,glycan array binding signal (z-score),[37],0.283
same,glycan array binding signal (z-score),[38],-0.223
same,glycan array binding signal (z-score),[39],1.72
same,glycan array binding signal (z-score),[40],-0.539
same,glycan array binding signal (z-score),[41],0.097
same,glycan array binding signal (z-score),[42],-0.865
same,glycan array binding signal (z-score),[43],-0.269
same,glycan array binding signal (z-score),[44],-0.04
same,glycan array binding signal (z-score),[45],-1.4

# Some of the entries above in another layout:
binder	measurement	setting	value
B1	glycan array binding signal (z-score)	[2]	0.319
same	glycan array binding signal (z-score)	[13]	0.887
